# Primary screen of a compound library

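Phenotypic screen: M. tuberculosis growth, cholesterol and DPPC medium, 4 days; the read-out is not stated. Tested at 50 µM. Higher reads as more growth inhibition (inferred: compounds with an IC50 in retests scored well above the rest). Of about 69,000 compounds tested this way, about 370 (0.54%) reached 50% or more in at least one test.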

Each number is a percent effect as filed. The controls that fix the scale are not given in the record; negative values are as filed. This is an unselected part of the compounds tested. Two or more numbers in one place are separate tests of the same structure; such repeats can differ widely.

{"smiles": "CC(O)CN1CCC(CN(C)CCC(=O)NC2CCCCC2)CC1", "stereo": "stereo not given", "effect": -19.43}
{"smiles": "CC(C)c1nc(CN(C)C(=O)CCNC(=O)c2ccccc2F)no1", "effect": -7.705}
{"smiles": "CCCc1noc(C(C)N(CC)Cc2ccco2)n1", "stereo": "stereo not given", "effect": "2.574 and -10.78"}
{"smiles": "Cc1cc(N)nc(SC2CCN(c3ccccc3)C2=O)n1", "stereo": "stereo not given", "effect": -9.989}
{"smiles": "COc1ccc(NC(C)c2nnnn2-c2ccccc2)cc1F", "stereo": "stereo not given", "effect": 2.248}
{"smiles": "O=C(c1ccccc1OCC1CC1)N1CCCC(n2ccnc2)C1", "stereo": "stereo not given", "effect": -2.379}
{"smiles": "Cc1cc(O)cc(=O)n1CCCC(=O)Nc1n[nH]c2ccccc12", "effect": -5.254}
{"smiles": "O=C(O)c1nnn(-c2ccccc2F)c1-c1ccncc1", "effect": -33.25}
{"smiles": "CCn1cc(C(=O)NCc2ccc3c(c2)OCO3)c(C)n1", "effect": 15.85}
{"smiles": "CC(C)CCN1CC2(CCN(C3CCCOC3)CC2)OC1=O", "stereo": "stereo not given", "effect": "-2.18 and 6.672"}
{"smiles": "COCC(=O)N1CCC([C@@H]2C[C@H](C(F)(F)F)n3nc(C)cc3N2)CC1", "effect": -1.443}
{"smiles": "O=C(O)C(F)(F)F.[H][C@@]12CCN(Cc3ccco3)C[C@@]1([H])O[C@H](C(=O)NCC1CCOCC1)C2", "effect": 0.3539}
{"smiles": "O=C1NCCCCC1Sc1nnc(C2CC2)n1C1CC1", "stereo": "stereo not given", "effect": -14.96}
{"smiles": "CC(C)c1cc(N2CCCC3(CCN(C)C3)C2)ncn1", "stereo": "stereo not given", "effect": -0.1366}
{"smiles": "O=C1CC(c2ccsc2)c2c(n(C3CCOCC3)[nH]c2=O)N1", "stereo": "stereo not given", "effect": 1.486}
{"smiles": "CCc1nc(NCC2CCCN(C(=O)C3CC3)C2)c2cnn(C)c2n1", "stereo": "stereo not given", "effect": 7.483}
{"smiles": "CCc1nnc2n1CCN(C(=O)c1cnc3ccccc3n1)C2", "effect": -9.21}
{"smiles": "O=C(NCCn1ccnc1)c1ccn(-c2ccccc2)n1", "effect": -28.6}
{"smiles": "[H][C@@]12CCN(CC3CC3)C[C@@]1([H])[C@H](C(=O)N1CCCC1)CCO2", "effect": -11.88}
{"smiles": "CC(C)[C@H]1COC(=O)N1Cc1nccn1C1CC1", "effect": -4.751}
{"smiles": "COCCNC(=O)[C@H]1C[C@@](CC(C)C)(C(=O)O)N(C)[C@H]1c1cccnc1", "effect": -14.84}
{"smiles": "Cc1noc(C)c1C(=O)NCc1cccnc1N(C)C", "effect": 21.11}
{"smiles": "CCOc1ccc(Br)cc1S(=O)(=O)N(CC)Cc1ccc(N(C)C)cc1", "effect": -7.963}
{"smiles": "CS(=O)(=O)c1ccc(OCCNCc2cccc(F)c2)cc1", "effect": 12.57}
{"smiles": "COc1ccc(C(=O)N2CC[C@H](CO)[C@H](O)C2)c(C)c1", "effect": -1.993}
{"smiles": "COCC(=O)N1Cc2cnc(Cc3ccc(OC)cc3)nc2C1", "effect": 16.1}
{"smiles": "Cc1nn2c(NCC(N)=O)cc(-c3ccccc3)nc2c1C", "effect": "-25.49 and -3.028"}
{"smiles": "Cc1cc(C)n(CC2CN(CC(=O)NCc3ccccn3)CCO2)n1", "stereo": "stereo not given", "effect": -4.278}
{"smiles": "Cc1ccc(-c2nnc(CN3CCCC(Cn4cncn4)C3)o2)cc1", "stereo": "stereo not given", "effect": 3.519}
{"smiles": "O=C(O)C(F)(F)F.O=C1CC2(CCN(Cc3ccco3)C2)CN1c1ccc2c(c1)OCO2", "stereo": "stereo not given", "effect": 7.496}
{"smiles": "Cc1cccc(N(CC(=O)N2CCCCC2)C(=O)C2CCCO2)c1", "stereo": "stereo not given", "effect": "-23 and -5.798"}
{"smiles": "NC(=O)c1cn[nH]c1NC(=O)c1ccc2c(c1)OCO2", "effect": -12.67}
{"smiles": "Cc1nc(CNC2CCCN(c3cccnn3)C2)no1", "stereo": "stereo not given", "effect": -52.33}
{"smiles": "COCc1ncc(CN2CCC(Oc3ccccc3C)CC2)cn1", "effect": -1.758}
{"smiles": "O=C(OCc1cccs1)c1cccc(C(=O)N2CCCC2)n1", "effect": "-10.58 and -16.79"}
{"smiles": "Cn1nc(Br)c2c(NCCNc3ncccn3)ncnc21", "effect": -39.21}
{"smiles": "O=C1CN(Cc2nnc(-c3ccccc3Br)o2)CCN1", "effect": -15.5}
{"smiles": "O=S1(=O)CCC(CNc2cc(-c3ccccc3)nc3ccnn23)C1", "stereo": "stereo not given", "effect": -17.27}
{"smiles": "CN1CCC(N(CCc2ccccc2)C(=O)c2ccoc2)CC1", "effect": -1.211}
{"smiles": "O=C(O)C(F)(F)F.[H][C@@]12CCCO[C@]1([H])[C@@H](OC)CN2C(=O)c1ccccn1", "effect": -3.96}
{"smiles": "O=C(NCCN1CCCCC1=O)C1CCC(=O)N(C2CCCC2)C1", "stereo": "stereo not given", "effect": 9.374}
{"smiles": "Cn1cc(Br)c(=O)c(NS(=O)(=O)c2cc(F)ccc2Cl)c1", "effect": 16.17}
{"smiles": "[H][C@@]12CCN(c3nc(-c4ccncc4)nc4c3cnn4C)C[C@@]([H])(CC1)N2C", "effect": -11.96}
{"smiles": "CNc1ncc2c(n1)CN(C1CC(C)(C)NC(C)(C)C1)C2=O", "effect": 4.737}
{"smiles": "O=C1NC2(CCN(Cc3ccccc3Cl)CC2)CC1c1ccccc1", "stereo": "stereo not given", "effect": -7.293}
{"smiles": "COc1cc(C(=O)N(C)Cc2cc(C(=O)O)c(C)o2)cc(OC)c1OC", "effect": "-14.4 and -1.672"}
{"smiles": "O=C(O)C(F)(F)F.[H][C@@]12C[C@H](c3nc(C)no3)CN(C3CCC3)[C@]1([H])CCO2", "effect": 1.909}
{"smiles": "Cc1cnn(CC2CCCN2Cc2ncc(-c3ccc(F)cc3)o2)c1", "stereo": "stereo not given", "effect": -23.9}
{"smiles": "Cc1nccn1CCN(C)c1nc(-c2cccnc2)nc2c1CCNC2", "effect": -14.73}
{"smiles": "Cc1cc(CNc2ccccc2N2CCCCC2)no1", "effect": 30.98}
{"smiles": "COC(=O)C(NC(=O)CCOC(C)C)c1cc(F)ccc1F", "stereo": "stereo not given", "effect": -16.09}
{"smiles": "CCc1nc(C2CCCN2Cc2ccn(C)c(=O)c2)no1", "stereo": "stereo not given", "effect": -13.19}
{"smiles": "Cc1cc(NC(=O)c2ccc(N3CCOCC3)c(F)c2)[nH]n1", "effect": -0.5271}
{"smiles": "CCCn1cnnc1CNC(=O)CC1C(=O)NCCN1C(C)C", "stereo": "stereo not given", "effect": "-19.9 and -4.338"}
{"smiles": "CCCc1nc(C)c(C(=O)NC2CCN(c3ncccn3)CC2)s1", "effect": -7.531}

5 of the entries, repeated:

{"smiles": "CCOc1ccc(Br)cc1S(=O)(=O)N(CC)Cc1ccc(N(C)C)cc1", "effect": -7.963}
{"smiles": "Cc1ccc(-c2nnc(CN3CCCC(Cn4cncn4)C3)o2)cc1", "stereo": "stereo not given", "effect": 3.519}
{"smiles": "O=C(NCCn1ccnc1)c1ccn(-c2ccccc2)n1", "effect": -28.6}
{"smiles": "Cc1nc(CNC2CCCN(c3cccnn3)C2)no1", "stereo": "stereo not given", "effect": -52.33}
{"smiles": "O=C(OCc1cccs1)c1cccc(C(=O)N2CCCC2)n1", "effect": "-10.58 and -16.79"}

Data taken from ChEMBL document CHEMBL3988442, “University of Dundee, Small-Polar-MMV Screening Library” (2021).